# Measurements reported in PubChem BioAssay AID1259254 (NCATS, 2017).
# Aim: 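Gene knock-downs that lead to re-replication, shown by excess G2 DNA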 (primary screen)
# Cell system: human HCT116 colorectal cancer cells
# Reagents: single siRNA against human genes
# Duration: 3 days
# Measurement: 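Imaged Hoechst DNA stain sorts each cell into a cycle phase by DNA amount; per plate, G2 fraction set to 0% for non-targeting and 100% for GMNN siRNA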
# Direction: G2 robust z-score and G2 cells, % of GMNN control: higher = more G2 cells, more excess DNA replication; raw share of cells in G2: higher = larger share of cells with G2 DNA content
# Active means: 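An siRNA counts as active if its G2 robust z-score lies at least 5 MADs above the screen median; here such calls match roughly 38% of GMNN control or more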
# This is a random part of about 59,000 reagents. Of all reagents, about 1,550 (2.6%) got an active call. 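G2 share is only a proxy for re-replication; each gene was hit by three separate siRNAs, and active genes were retested.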 Raw values are not corrected between plates. Unmarked entries are inactive. The numbers tell different reagents against one gene apart. No sequences are given here. The record does not give: the amount of reagent.
G2 robust z-score,"G2 cells, % of GMNN control",raw share of cells in G2 (%),Gene,reagent no.
0.0276,3.16,4.74,GPR180 (G protein-coupled receptor 180),1
-0.159,1.85,3.58,GPR180 (G protein-coupled receptor 180),2
0.735,8.14,5.34,GPR180 (G protein-coupled receptor 180),3
0.358,5.48,5.65,"GVINP1 (GTPase, very large interferon inducible pseudogene 1)",1
-0.268,1.08,3.88,"GVINP1 (GTPase, very large interferon inducible pseudogene 1)",2
-1.02,-4.19,2.84,"GVINP1 (GTPase, very large interferon inducible pseudogene 1)",3
-0.233,1.33,3.65,"ACAP1 (ArfGAP with coiled-coil, ankyrin repeat and PH domains 1)",1
1.41,12.9,9.99,"ACAP1 (ArfGAP with coiled-coil, ankyrin repeat and PH domains 1)",2
1.45,13.2,10.2,"ACAP1 (ArfGAP with coiled-coil, ankyrin repeat and PH domains 1)",3
-0.405,0.119,4.39,KIAA1614,1
0.292,5.02,6.86,KIAA1614,2
-0.596,-1.22,2.64,KIAA1614,3
1.37,12.6,9.38,DCUN1D2 (defective in cullin neddylation 1 domain containing 2),1
-0.446,-0.172,4.07,DCUN1D2 (defective in cullin neddylation 1 domain containing 2),2
-0.301,0.847,3.41,DCUN1D2 (defective in cullin neddylation 1 domain containing 2),3
-0.63,-1.47,4.61,TMEM50B (transmembrane protein 50B),1
0.691,7.83,6.96,TMEM50B (transmembrane protein 50B),2
0.16,4.09,5.13,TMEM50B (transmembrane protein 50B),3
0.169,4.16,5.2,OR51B6 (olfactory receptor family 51 subfamily B member 6),1
0.685,7.79,6.79,OR51B6 (olfactory receptor family 51 subfamily B member 6),2
-0.27,1.06,5.09,OR51B6 (olfactory receptor family 51 subfamily B member 6),3
0.418,5.91,5.89,GPN1 (GPN-loop GTPase 1),1
7.06 (active),52.7,27.5,GPN1 (GPN-loop GTPase 1),2
1.52,13.6,8.72,GPN1 (GPN-loop GTPase 1),3
1.77,15.5,13.2,RNF130 (ring finger protein 130),1
3.2,25.5,13.6,RNF130 (ring finger protein 130),2
0.338,5.35,6.56,RNF130 (ring finger protein 130),3
0.0314,3.19,3.92,MBTD1 (mbt domain containing 1),1
-0.402,0.137,5.97,MBTD1 (mbt domain containing 1),2
-0.309,0.792,3.88,MBTD1 (mbt domain containing 1),3
-0.341,0.566,3.78,DOK6 (docking protein 6),1
-0.367,0.388,3.26,DOK6 (docking protein 6),2
1.39,12.8,7.27,DOK6 (docking protein 6),3
0.163,4.11,5.74,"MUC16 (mucin 16, cell surface associated)",1
4.24,32.8,13.1,"MUC16 (mucin 16, cell surface associated)",2
1.07,10.5,4.89,"MUC16 (mucin 16, cell surface associated)",3
-0.155,1.88,6.4,HBA1 (hemoglobin subunit alpha 1),1
-0.77,-2.45,3.3,HBA1 (hemoglobin subunit alpha 1),2
4.08,31.7,16.6,HBA1 (hemoglobin subunit alpha 1),3
1.7,14.9,8.95,CHMP3 (charged multivesicular body protein 3),1
3.49,27.5,15.9,CHMP3 (charged multivesicular body protein 3),2
0.425,5.96,5.16,CHMP3 (charged multivesicular body protein 3),3
0.72,8.03,7.31,EFCAB13 (EF-hand calcium binding domain 13),1
-0.0138,2.87,4.19,EFCAB13 (EF-hand calcium binding domain 13),2
0.813,8.69,4.36,EFCAB13 (EF-hand calcium binding domain 13),3
0.206,4.41,4.6,FAM241B (family with sequence similarity 241 member B),1
0.668,7.67,6.36,FAM241B (family with sequence similarity 241 member B),2
1.5,13.5,7.75,FAM241B (family with sequence similarity 241 member B),3
0.865,9.05,7.12,ACOT6 (acyl-CoA thioesterase 6),1
0.687,7.8,6.37,ACOT6 (acyl-CoA thioesterase 6),2
0.0882,3.59,4.34,ACOT6 (acyl-CoA thioesterase 6),3
-0.253,1.19,4.01,GCSAM (germinal center associated signaling and motility),1
0.495,6.45,5.34,GCSAM (germinal center associated signaling and motility),2
-0.13,2.05,3.85,GCSAM (germinal center associated signaling and motility),3
0.331,5.3,6.37,LTB4R2 (leukotriene B4 receptor 2),1
-0.53,-0.764,3.03,LTB4R2 (leukotriene B4 receptor 2),2
3.4,26.9,15.5,LTB4R2 (leukotriene B4 receptor 2),3
-0.738,-2.23,4.5,MGST3 (microsomal glutathione S-transferase 3),1
2.38,19.7,13.3,MGST3 (microsomal glutathione S-transferase 3),2
-0.0692,2.48,4.01,MGST3 (microsomal glutathione S-transferase 3),3
-1.71,-9.08,2.39,PRSS23 (serine protease 23),1
1.24,11.7,9.03,PRSS23 (serine protease 23),2
-1.14,-5.03,2.03,PRSS23 (serine protease 23),3
0.64,7.47,8.15,SCN4B (sodium voltage-gated channel beta subunit 4),1
-1.11,-4.87,2.3,SCN4B (sodium voltage-gated channel beta subunit 4),2
-1.02,-4.22,1.83,SCN4B (sodium voltage-gated channel beta subunit 4),3
2.1,17.7,11.7,GRIN2B (glutamate ionotropic receptor NMDA type subunit 2B),1
-0.3,0.859,5.07,GRIN2B (glutamate ionotropic receptor NMDA type subunit 2B),2
-1.09,-4.67,2.55,GRIN2B (glutamate ionotropic receptor NMDA type subunit 2B),3

Records listed so far whose target name begins with M or m (9):
G2 robust z-score,"G2 cells, % of GMNN control",raw share of cells in G2 (%),Gene,reagent no.
0.0314,3.19,3.92,MBTD1 (mbt domain containing 1),1
-0.402,0.137,5.97,MBTD1 (mbt domain containing 1),2
-0.309,0.792,3.88,MBTD1 (mbt domain containing 1),3
0.163,4.11,5.74,"MUC16 (mucin 16, cell surface associated)",1
4.24,32.8,13.1,"MUC16 (mucin 16, cell surface associated)",2
1.07,10.5,4.89,"MUC16 (mucin 16, cell surface associated)",3
-0.738,-2.23,4.5,MGST3 (microsomal glutathione S-transferase 3),1
2.38,19.7,13.3,MGST3 (microsomal glutathione S-transferase 3),2
-0.0692,2.48,4.01,MGST3 (microsomal glutathione S-transferase 3),3
